At least one compound was matched to its structure with a doubt left. Numbered stars: 1 amine (or outer) side, 2 acyl side, 3 side chain; on linkers, the order of the positions; unused ones are H or OH. Peptide text beside a SMILES is read from it. CO = O=C([*:1])[*:2]
Tested on: protease from strain SRC002 (MTCC 5564)
Assay: Effect of inhibitors, metals and chemicals on protease activity
Type: biochemical, Pseudomonas aeruginosa

Compound: CC(C)[C@H](NC(=O)[C@H](CCCNC(=N)N)NC(=O)N[C@@H](Cc1ccccc1)C(=O)O)C(=O)N[C@H](C=O)CCCNC(=N)N [Antipain] ({Phe-CO}-Arg-Val-Arg-aldehyde)
- effect on protease activity (EGTA 10 mM, 1,10 Phenanthrolin 2 mM, Phosphoramidone 500 μg/ml, Antipain 20 μM, Bestatin 50 μg/ml, Chymostatin 20 μM, E-64 2 μM, Pepstatin 1 μM, Ebelacetone-B 1 μM): almost no effect
- effect on enzyme activity (concentration not given, crude enzyme for the partial inhibitors): no inhibitory effect

Reference: US8524481B2, “Hide processing methods and compositions” (priority 2010, dated 2013)
